In US20260224721A1 (Ambrx, Inc., priority 2023, published 2026):

Test: general procedure: solution-phase peptide synthesis; HATU / N-methylmorpholine

Row | Substance | step yield (late stage modification step) [%] | step yield (coupling step) [%]
1 | ((2R,3R)-3-((S)-1-((3R,4S,5S)-4-((S)-2-((S)-2-((tert-butoxycarbonyl)(methyl)amino)-3-methylbutanamido)-N,3-dimethylbutanamido)-3-methoxy-5-methylheptanoyl)pyrrolidin-2-yl)-3-methoxy-2-methylpropanoyl)-L-phenylalanine | 90 | –
2 | methyl ((2R,3R)-3-((S)-1-((3R,4S,5S)-4-((S)-2-((S)-2-((tert-butoxycarbonyl)(methyl)amino)-3-methylbutanamido)-N,3-dimethylbutanamido)-3-methoxy-5-methylheptanoyl)pyrrolidin-2-yl)-3-methoxy-2-methylpropanoyl)-L-phenylalaninate | – | 79
3 | methyl ((2R,3R)-3-((S)-1-((3R,4S,5S)-4-((S)-2-((tert-butoxycarbonyl)amino)-N,3-dimethylbutanamido)-3-methoxy-5-methylheptanoyl)pyrrolidin-2-yl)-3-methoxy-2-methylpropanoyl)-L-phenylalaninate | – | 76
